{"source": "PubChem BioAssay AID1508597 – Cure First | 2020", "purpose": "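Knock-downs altering ovarian cancer cell survival with or without PARP inhibitor rucaparib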 (primary screen)", "system": "human ovarian carcinoma lines grown from tumours: OCI-P5x (papillary serous) and OCI-C5x (clear cell)", "knock-down reagent": "siRNA pool against human genes, 1.25 pmol siRNA per well", "duration": "72 h or 96 h, depending on the cell culture", "conditions": "rucaparib 20 µM (about IC30) or vehicle, present until read-out", "rucaparib or vehicle": "Vehicle", "cell line": "OCI-C5x (clear cell)", "detection": "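ATP luminescence measured at 72 or 96 h according to the culture, then normalised and expressed as percent viability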", "reading the numbers": "viability, normalised: higher = more viable cells remaining", "active means": "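Active when normalised viability falls below 80 percent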", "calls": "active = viability under 80%; inactive = viability 80% or more", "note": "This is an unselected part of the about 2,100 reagents, in one setting of the screen. 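Calls flag viability under 80% in either arm, not effects specific to rucaparib; the reference for percent is not stated.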 A number with no mark means an inactive call. A reagent listed more than once was tested more than once; the source does not tell the runs apart. The record does not give: the 100% reference."}
{"target":"BANP","technical replicate":"1","viability, normalised (%)":"58.7 (active)"}
{"target":"BANP","technical replicate":"2","viability, normalised (%)":"77.4 (active)"}
{"target":"BANP","technical replicate":"3","viability, normalised (%)":"43.5 (active)"}
{"target":"POLR1B","technical replicate":"1","viability, normalised (%)":"50.7 (active)"}
{"target":"POLR1B","technical replicate":"2","viability, normalised (%)":"50 (active)"}
{"target":"POLR1B","technical replicate":"3","viability, normalised (%)":"42.9 (active)"}
{"target":"MACROD1","technical replicate":"1","viability, normalised (%)":"59.8 (active)"}
{"target":"MACROD1","technical replicate":"2","viability, normalised (%)":"67.4 (active)"}
{"target":"MACROD1","technical replicate":"3","viability, normalised (%)":"64.3 (active)"}
{"target":"CDK2","technical replicate":"1","viability, normalised (%)":"60.5 (active)"}
{"target":"CDK2","technical replicate":"1","viability, normalised (%)":"49 (active)"}
{"target":"CDK2","technical replicate":"2","viability, normalised (%)":"51.9 (active)"}
{"target":"CDK2","technical replicate":"2","viability, normalised (%)":"38.3 (active)"}
{"target":"CDK2","technical replicate":"3","viability, normalised (%)":"52.6 (active)"}
{"target":"CDK2","technical replicate":"3","viability, normalised (%)":"41.4 (active)"}
{"target":"PTK7","technical replicate":"1","viability, normalised (%)":"42.1 (active)"}
{"target":"PTK7","technical replicate":"2","viability, normalised (%)":"47.4 (active)"}
{"target":"PTK7","technical replicate":"3","viability, normalised (%)":"58.7 (active)"}

Ordered by “viability, normalised (%)” (lowest first): 5 of the entries above
{"target":"CDK2","technical replicate":"2","viability, normalised (%)":"38.3 (active)"}
{"target":"CDK2","technical replicate":"1","viability, normalised (%)":"49 (active)"}
{"target":"CDK2","technical replicate":"2","viability, normalised (%)":"51.9 (active)"}
{"target":"CDK2","technical replicate":"3","viability, normalised (%)":"52.6 (active)"}
{"target":"CDK2","technical replicate":"1","viability, normalised (%)":"60.5 (active)"}

More results:
{"target":"RYK","technical replicate":"1","viability, normalised (%)":"62.1 (active)"}
{"target":"RYK","technical replicate":"2","viability, normalised (%)":"56.6 (active)"}
{"target":"RYK","technical replicate":"3","viability, normalised (%)":"75.3 (active)"}
{"target":"KDM6A","technical replicate":"1","viability, normalised (%)":"63.2 (active)"}
{"target":"KDM6A","technical replicate":"2","viability, normalised (%)":"69.5 (active)"}
{"target":"KDM6A","technical replicate":"3","viability, normalised (%)":"64.8 (active)"}
{"target":"FES","technical replicate":"1","viability, normalised (%)":"30.6 (active)"}
{"target":"FES","technical replicate":"2","viability, normalised (%)":"47.1 (active)"}
{"target":"FES","technical replicate":"3","viability, normalised (%)":"46.7 (active)"}
{"target":"GUCY2F","technical replicate":"1","viability, normalised (%)":"79.8 (active)"}
{"target":"GUCY2F","technical replicate":"2","viability, normalised (%)":90.2}
{"target":"GUCY2F","technical replicate":"3","viability, normalised (%)":"65.5 (active)"}
{"target":"SIN3A","technical replicate":"1","viability, normalised (%)":"23.1 (active)"}
{"target":"SIN3A","technical replicate":"2","viability, normalised (%)":"15 (active)"}
{"target":"SIN3A","technical replicate":"3","viability, normalised (%)":"22.6 (active)"}
{"target":"RAD52","technical replicate":"1","viability, normalised (%)":"45.8 (active)"}
{"target":"RAD52","technical replicate":"2","viability, normalised (%)":"56.9 (active)"}
{"target":"RAD52","technical replicate":"3","viability, normalised (%)":"63.5 (active)"}
{"target":"SOX15","technical replicate":"1","viability, normalised (%)":"38.9 (active)"}
{"target":"SOX15","technical replicate":"2","viability, normalised (%)":"33.8 (active)"}
{"target":"SOX15","technical replicate":"3","viability, normalised (%)":"44 (active)"}
{"target":"ZDHHC2","technical replicate":"1","viability, normalised (%)":"61.6 (active)"}
{"target":"ZDHHC2","technical replicate":"2","viability, normalised (%)":"70.8 (active)"}
{"target":"ZDHHC2","technical replicate":"3","viability, normalised (%)":"72.6 (active)"}
